This series concerns HepG2 cells. Nature of the series: HPLC and MALDI-TOF identification of peptides acid-eluted from hepatocellular carcinoma cells. Also on record: species or system human. Particulars: MALDI-TOF of HPLC fractions; absent from Hep3B.
As to “GVALQTMKQ (listed as Homo sapiens) [hAFP542-550, dominant HLA-A*0201 peptide derived from human alpha fetoprotein]”, the “identification of peptide in peptide pool eluted from HepG2 cells” value is given as “peaks were identified”.
The entry for “PLFQVPEPV (listed as Homo sapiens) [hAFP137-145, dominant HLA-A*0201 peptide derived from human alpha fetoprotein]” is “not possible to document the presence”.
On to “GLSPNLNRFL (listed as Homo sapiens) [hAFP325-334, dominant HLA-A*0201 peptide derived from human alpha fetoprotein]”, for which the “identification of peptide in peptide pool eluted from HepG2 cells” value was “peaks were identified”.

For the origin of these results see patent US7098306B2, “Method and compositions for treating hepatocellular cancer” (The Regents of the University of California, priority 1997, dated 2006).
